Patent publication US6458923B1, “Modified position (7) bradykinin antagonist peptides” (Scios Inc., priority 1991, dated 2002)
At least one structure is not confirmed: it was looked up by name or label, or the drawing left a doubt.

Biological target: T1, bradykinin receptor (Cavia porcellus, UniProt O70526)
T1 construct: from tissue; host or cells: guinea pig terminal ileum membrane homogenate
T1 sequence (O70526 1-372): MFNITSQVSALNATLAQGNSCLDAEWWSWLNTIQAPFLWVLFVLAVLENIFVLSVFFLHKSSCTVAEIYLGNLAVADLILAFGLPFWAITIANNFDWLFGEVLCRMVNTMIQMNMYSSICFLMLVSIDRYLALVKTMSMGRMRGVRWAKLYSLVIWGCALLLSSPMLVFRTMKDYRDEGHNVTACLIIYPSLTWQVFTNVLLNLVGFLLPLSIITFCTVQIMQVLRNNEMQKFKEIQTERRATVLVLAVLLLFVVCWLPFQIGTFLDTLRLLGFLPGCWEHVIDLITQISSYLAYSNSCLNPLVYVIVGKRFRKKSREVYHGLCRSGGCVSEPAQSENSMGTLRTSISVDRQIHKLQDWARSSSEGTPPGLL
Assay: 3H-Bradykinin binding assay, guinea pig terminal ileum homogenate
Settings: displacement of 3H-bradykinin (~0.3 nM), terminal ileum of male Hartley guinea pigs, 90 min at ambient temperature

N=C(N)NCCC[C@@H](N)C(=O)N[C@@H](CCCNC(=N)N)C(=O)N1CCC[C@H]1C(=O)N1C[C@H](O)C[C@H]1C(=O)NCC(=O)N[C@@H](Cc1cccs1)C(=O)N[C@@H](CO)C(=O)N1CC2CCCCC2C[C@@H]1C(=O)N1Cc2ccccc2C[C@H]1C(=O)N[C@@H](CCCNC(=N)N)C(=O)O (stereo partly drawn) [D-Arg-Arg-Pro-Hyp-Gly-Thi-Ser-(D-Ric)-Tic-Arg]
Ki: 2.13 nM
